# Primary screen of a compound library

From ChEMBL document CHEMBL3988442, “University of Dundee, Small-Polar-MMV Screening Library” (2021).

Results are given as percent effect.
The controls that fix the scale are not given in the record; negative values are as filed.
Compounds were drawn at random from those tested, without regard to their results.
Two or more numbers in one place are separate tests of the same structure; such repeats can differ widely.

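Viability assay of Plasmodium falciparum sporozoites; the read-out is not stated. The concentration is filed as 10 mM, unlikely as a test dose, so the dose is not known. The record gives no direction; compounds that gave an IC50 in retests scored well above the rest, so higher reads as lower viability. Strong results were mostly tested again. Of about 34,000 compounds tested this way, about 280 (0.84%) reached 50% or more in at least one test.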

structure,Percent Effect
COc1cc(S(=O)(=O)N2CCc3ccccc32)cc(C(=O)O)c1OC,5.258%
Cc1ccc([C@H]2CN(CCO)C[C@@H]2NC(=O)CN2CCCCC2=O)o1,-6.685%
Cn1nccc1C(=O)N1CCC2(CC1)COC(COc1ccccn1)C2.O=C(O)C(F)(F)F (stereo not given),-13.87%
CCN(C(=O)CS(=O)(=O)Cc1cc(Cl)c2c(c1)OCCCO2)C1CC1,-1.398%
Cc1cc2n(n1)CC(CNCc1cnn(-c3ccccc3)c1)CN2 (stereo not given),-8.409%
O=C(N[C@@H]1CCNC[C@H]1O)c1ccc(O)c(Cl)c1,-4.366%
CC(C)n1nc(CNc2ncccn2)c2c1CN(C)CC2.O=C(O)C(F)(F)F.O=C(O)C(F)(F)F.O=C(O)C(F)(F)F,-7.815%
[H][C@]12CC[C@]([H])(CN(Cc3snnc3C)C1)N(Cc1ccccc1)C2,-16.27% & -17.99%
[H][C@@]12CCN(C(=O)Cc3csc4ccccc34)C[C@]1([H])OCCNC2=O,10.48%
Cc1nc(NCC2CC2)nc2c1COCC21CCN(C(=O)NC(C)C)C1 (stereo not given),1.804%
Cl.Clc1cccnc1OC1CCNCC1,-23.04% & -32.72%
Cc1ccc(CN2CCc3nnc(CN4CCCC4=O)n3CC2)o1.O=C(O)C(F)(F)F,18.48%
CSCC(=O)N1CCCC(n2ccnc2C(C)C)C1 (stereo not given),4.319%
CCOc1ccc(NC(=O)c2cnc(N3CCCC3)nc2C)cc1,-9.944%
O=C(CSc1ccc(F)cc1F)NS(=O)(=O)c1ccc2c(c1)OCCO2,6.786%
Cc1cc(C(=O)N2CCc3ncc(CN4CCCC4)n3CC2)no1.O=C(O)C(F)(F)F,4.174%
O=C(O)C(F)(F)F.[H][C@@]12CN(S(C)(=O)=O)C[C@H](C(=O)Nc3cccnc3)[C@]1([H])CCO2,4.514%
CC(NC(=O)c1ccsc1)c1ccc2c(c1)NC(=O)CO2 (stereo not given),4.535%
[H][C@@]12COC[C@@H](CC(=O)NCCOC)[C@]1([H])CN(C(=O)c1cnccn1)C2,-12.44%
CC(=O)N1CCCN(c2nccc(-c3cn(C)nc3C)n2)CC1,-5.365%
O=C(N[C@@H]1CCN(c2nccc3ccccc23)C[C@H]1O)c1cnccn1,-10.25%
COCc1cccc(CNCc2c(C(C)C)nn(C)c2N(C)C)c1,7.574%
CC(C)CC(=O)NS(=O)(=O)c1ccc2c(c1)OCCCO2,-4.937%
CCN1CCn2c(C)cnc2C12CCN(C(=O)COC)CC2.O=C(O)C(F)(F)F.O=C(O)C(F)(F)F,11.37%
O=C(O)C(F)(F)F.[H][C@@]12OCCN(C(=O)c3cc(C)[nH]c3C)[C@@]1([H])CC[C@H]2Oc1ccccn1,0.7812%
Cl.O=C1CC2(CCNCC2)C(=O)N1Cc1ccc(F)cc1,-25.77% & 29.68% & -25.66%
O=C(C(c1ccccc1)N1CCc2cncnc2C1)N1CCCCC1 (stereo not given),1.959%
O=C1N(Cc2cccc(F)c2F)CCCC1(O)CN1CCCOCC1 (stereo not given),1.717%
COc1ncccc1CN1CCc2[nH]nc(C(=O)N(C)C)c2C1,10.07%
COc1ccc(OC)c(NC(=O)c2c(C)cn(C)c2CC(=O)O)c1,-3.312%
OCCN1CCC(Cc2nccs2)CC1,26.16%
CC(C)[C@H](NS(C)(=O)=O)C(=O)NCc1cc(-c2ccccc2)n[nH]1,-6.181%
COc1ccc(C2CC(=O)Nc3c2cnn3C2CCCC2)cc1 (stereo not given),0.7277%
CCc1nc(NS(=O)(=O)c2cc(C)ccc2F)no1,-13.73%
Cc1cccc(-c2nc(C)nn2CC(=O)NC(C)C2CC2)c1 (stereo not given),-34.61%
COc1ccc(CNC(=O)NCc2c(C)cc(C)[nH]c2=O)cc1,2.689%
COc1cccc2c1N(S(=O)(=O)c1cc(C(=O)O)cs1)CCC2,0.6529%
CN(CCc1ccccn1)c1cc(N2CCCCC2)ncn1,16.31% & 54.77%
O=C(O)C(F)(F)F.[H][C@@]12CCN(C3CCCCC3)C[C@]1(C(=O)N1CCCO1)CCO2,-8.117%
CC(CNC(=O)N1CCC(CO)CC1)Cc1cccs1 (stereo not given),-6.509%
CCc1nc(C2CCCN2C(=O)CCc2cccs2)no1 (stereo not given),-7.602%
COCCN1CCc2ncnc(-c3ccccc3)c2CC1.O=C(O)C(F)(F)F,15.41%
CN(C)Cc1cnc(CC2CCN(CCc3ccccc3)CC2)cn1,11.62%
COc1c(CNC2CCc3ccccc32)c(C)nn1C (stereo not given),40.08% & 27.89% & 34.38%
O=C(CO)N1CCC(CCc2ccnc(Nc3cnccn3)c2)CC1,-3.121%
O=C(O)C(F)(F)F.O=C(O)C(F)(F)F.O=C(O)C(F)(F)F.O=C(O)C(F)(F)F.[H][C@]12CC(Cn3cccn3)N(C)[C@@]1([H])CCN(Cc1cccnc1)C2 (stereo not given in full),5.64%
[H][C@]12CC[C@]([H])(CN(C3Cc4ccccc4C3)C1)N(Cc1nnc(C)o1)C2,-5.074%
CN1CCOC(C)(C(=O)N2CCN(C3CCCC3)CC2)C1 (stereo not given),-9.006%
CCn1nc(CC(C)C)cc1C(=O)N1CCCC(C#N)C1 (stereo not given),-10.3%
O=C(NC[C@H]1CCCC[C@H]1O)c1cccc2[nH]c(-c3cccs3)nc12,-13.55%
CN(Cc1ccccc1)C(=O)CS(=O)(=O)Cc1ccc(Cl)c(Cl)c1,-3.79%
CN(C)c1cc(C2CCCNC2)ccn1.Cl.Cl (stereo not given),-1.33%
CN(C)c1nc2c(c(=O)[nH]1)Cc1ccccc1OC2,9.66% & 16.82%
Cc1noc(C2CCC3(CCN(C(=O)c4ncccn4)CC3)O2)n1 (stereo not given),-2.719%
Cc1cc(C)n(Cc2cc(C(=O)N3CCCC3c3nccs3)n[nH]2)n1 (stereo not given),-5.586%

7 of the entries, repeated:

{"structure": "CCc1nc(C2CCCN2C(=O)CCc2cccs2)no1", "stereo": "stereo not given", "Percent Effect": -7.602}
{"structure": "O=C(C(c1ccccc1)N1CCc2cncnc2C1)N1CCCCC1", "stereo": "stereo not given", "Percent Effect": 1.959}
{"structure": "Cc1cc(C(=O)N2CCc3ncc(CN4CCCC4)n3CC2)no1.O=C(O)C(F)(F)F", "Percent Effect": 4.174}
{"structure": "O=C(NC[C@H]1CCCC[C@H]1O)c1cccc2[nH]c(-c3cccs3)nc12", "Percent Effect": -13.55}
{"structure": "[H][C@@]12CCN(C(=O)Cc3csc4ccccc34)C[C@]1([H])OCCNC2=O", "Percent Effect": 10.48}
{"structure": "CCn1nc(CC(C)C)cc1C(=O)N1CCCC(C#N)C1", "stereo": "stereo not given", "Percent Effect": -10.3}
{"structure": "COc1ncccc1CN1CCc2[nH]nc(C(=O)N(C)C)c2C1", "Percent Effect": 10.07}